In test [1] the target is ERα, transfected in HeLa cells (UniProt P03372). Nature of the test: co-IP; HeLa cells co-transfected with cMyc-tagged XAP2 constructs and ERα, DMSO or 10 nM E2 for 1 h; Pierce classic IP kit, IP with ERα antibody, blot with c-Myc antibody.
Test [2] deals with ERα, endogenous in MCF-7 cells (human (endogenous in MCF-7)) (UniProt P03372). In words: Re-ChIP (sequential chromatin immunoprecipitation); MCF-7 cells, DMSO or 10 nM E2 for 45 min, cross-linked 15 min with 1.5% formaldehyde; chromatin precipitated in turn with XAP2 and ERα antibodies; PCR of pS2 and GREB1 promoter regions.

Chains of the proteins cited; added tags and fusions are not shown.
UniProt P03372: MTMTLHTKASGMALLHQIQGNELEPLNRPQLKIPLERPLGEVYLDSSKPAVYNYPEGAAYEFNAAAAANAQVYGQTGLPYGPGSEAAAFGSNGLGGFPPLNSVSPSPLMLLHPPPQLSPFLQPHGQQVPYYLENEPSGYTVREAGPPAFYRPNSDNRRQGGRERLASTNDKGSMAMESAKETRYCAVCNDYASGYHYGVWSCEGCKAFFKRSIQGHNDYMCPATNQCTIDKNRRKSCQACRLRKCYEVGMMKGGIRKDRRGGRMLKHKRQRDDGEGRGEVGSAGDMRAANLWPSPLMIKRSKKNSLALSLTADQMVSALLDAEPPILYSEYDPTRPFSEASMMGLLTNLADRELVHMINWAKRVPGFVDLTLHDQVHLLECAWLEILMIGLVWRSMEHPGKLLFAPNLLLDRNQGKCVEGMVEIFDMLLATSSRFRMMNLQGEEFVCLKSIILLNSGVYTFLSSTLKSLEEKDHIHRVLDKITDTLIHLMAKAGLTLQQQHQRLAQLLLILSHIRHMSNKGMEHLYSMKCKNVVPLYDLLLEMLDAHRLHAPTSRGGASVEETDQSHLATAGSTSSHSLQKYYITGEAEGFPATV

In article PMC3184960 one finds binding data, which are given here for 4 molecules.

No constants are given. Whether binding was seen depends on the method and setting. For some of these results: Binding seen in cells or lysates may run through a third protein. Some binding calls cover weakened binding; strength is not graded here. For some of these results: Where a sequence is shown, tags or fusion partners need not be part of it.

B1: c-Myc-tagged wild-type XAP2 (protein, UniProt O00170 1-330)
chain: MADIIARLREDGIQKRVIQEGRGELPDFQDGTKATFHYRTLHSDDEGTVLDDSRARGKPMELIIGKKFKLPVWETIVCTMREGEIAQFLCDIKHVVLYPLVAKSLRNIAVGKDPLEGQRHCCGVAQMREHSSLGHADLDALQQNPQPLIFHMEMLKVESPGTYQQDPWAMTDEEKAKAVPLIHQEGNRLYREGHVKEAAAKYYDAIACLKNLQMKEQPGSPEWIQLDQQITPLLLNYCQCKLVVEEYYEVLDHCSSILNKYDDNVKAYFKRGKAHAAVWNAQEAQADFAKVLELDPALAPVVSRELRALEARIRQKDEEDKARFRGIFSH
Consider B1, for which the binding entry in test [1] is recorded as “binds”.

B2: XAP2, endogenous in MCF-7 cells (protein, UniProt O00170 1-330)
chain: MADIIARLREDGIQKRVIQEGRGELPDFQDGTKATFHYRTLHSDDEGTVLDDSRARGKPMELIIGKKFKLPVWETIVCTMREGEIAQFLCDIKHVVLYPLVAKSLRNIAVGKDPLEGQRHCCGVAQMREHSSLGHADLDALQQNPQPLIFHMEMLKVESPGTYQQDPWAMTDEEKAKAVPLIHQEGNRLYREGHVKEAAAKYYDAIACLKNLQMKEQPGSPEWIQLDQQITPLLLNYCQCKLVVEEYYEVLDHCSSILNKYDDNVKAYFKRGKAHAAVWNAQEAQADFAKVLELDPALAPVVSRELRALEARIRQKDEEDKARFRGIFSH
In the case of B2, the binding result in test [2] is recorded as “binds”.

B3: c-Myc-tagged XAP2 R271W (protein, UniProt O00170 1-330)
chain: MADIIARLREDGIQKRVIQEGRGELPDFQDGTKATFHYRTLHSDDEGTVLDDSRARGKPMELIIGKKFKLPVWETIVCTMREGEIAQFLCDIKHVVLYPLVAKSLRNIAVGKDPLEGQRHCCGVAQMREHSSLGHADLDALQQNPQPLIFHMEMLKVESPGTYQQDPWAMTDEEKAKAVPLIHQEGNRLYREGHVKEAAAKYYDAIACLKNLQMKEQPGSPEWIQLDQQITPLLLNYCQCKLVVEEYYEVLDHCSSILNKYDDNVKAYFKWGKAHAAVWNAQEAQADFAKVLELDPALAPVVSRELRALEARIRQKDEEDKARFRGIFSH
For B3, in test [1], the binding entry is reported as “binds”.

B4: c-Myc-tagged XAP2 V49M (protein, UniProt O00170 1-330)
chain: MADIIARLREDGIQKRVIQEGRGELPDFQDGTKATFHYRTLHSDDEGTMLDDSRARGKPMELIIGKKFKLPVWETIVCTMREGEIAQFLCDIKHVVLYPLVAKSLRNIAVGKDPLEGQRHCCGVAQMREHSSLGHADLDALQQNPQPLIFHMEMLKVESPGTYQQDPWAMTDEEKAKAVPLIHQEGNRLYREGHVKEAAAKYYDAIACLKNLQMKEQPGSPEWIQLDQQITPLLLNYCQCKLVVEEYYEVLDHCSSILNKYDDNVKAYFKRGKAHAAVWNAQEAQADFAKVLELDPALAPVVSRELRALEARIRQKDEEDKARFRGIFSH
On to B4, for which the binding result in test [1] is listed as “binds”.
